{"sequences": {"note": "Amino acid sequences for entries named in this document (tags omitted).", "UniProt P16473, whole entry, looked up": "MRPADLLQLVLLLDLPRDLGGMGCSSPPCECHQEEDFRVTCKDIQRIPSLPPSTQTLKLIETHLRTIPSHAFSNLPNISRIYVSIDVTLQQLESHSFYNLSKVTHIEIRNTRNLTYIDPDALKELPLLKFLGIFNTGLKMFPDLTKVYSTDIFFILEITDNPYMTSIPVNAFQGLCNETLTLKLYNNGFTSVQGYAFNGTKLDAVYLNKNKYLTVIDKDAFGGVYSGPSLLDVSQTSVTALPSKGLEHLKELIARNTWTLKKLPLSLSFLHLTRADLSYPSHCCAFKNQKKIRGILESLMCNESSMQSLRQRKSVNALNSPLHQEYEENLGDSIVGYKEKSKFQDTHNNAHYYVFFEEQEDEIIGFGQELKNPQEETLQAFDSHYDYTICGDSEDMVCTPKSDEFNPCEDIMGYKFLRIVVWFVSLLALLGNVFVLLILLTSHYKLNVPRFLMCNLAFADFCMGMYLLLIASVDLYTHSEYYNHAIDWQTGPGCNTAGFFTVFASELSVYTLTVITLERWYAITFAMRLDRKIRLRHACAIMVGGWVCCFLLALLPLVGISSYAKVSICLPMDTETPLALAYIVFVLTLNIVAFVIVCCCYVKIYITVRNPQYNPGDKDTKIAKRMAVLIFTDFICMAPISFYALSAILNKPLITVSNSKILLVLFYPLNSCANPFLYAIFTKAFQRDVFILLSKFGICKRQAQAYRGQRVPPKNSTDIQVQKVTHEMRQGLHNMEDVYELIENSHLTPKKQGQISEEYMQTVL"}, "source": "PubChem BioAssay AID933", "about": "(National Center for Advancing Translational Sciences (NCATS), 2007)", "note": "“And” between values parts separate entries of the source, which are not always exact repeats. Equal entries are not always repeated. Inconclusive means that the source gave no clear call. Such entries were picked first, then a sample of the others. A potency beside an inconclusive call is a rough fit, not a confirmed value. The source made the active and inactive calls. Calls follow the shape of the dose curve; as a rule, active = well fitted activation curve with a large enough effect in the signal ratio, with a control signal flat; inconclusive = small, poorly fitted or top-dose-only effect, or a change in a side signal; inactive = flat fitted curve, though single readings scatter; the % refers to the signal ratio. Potency is read from the fitted curve at half-maximal effect."}
{"target": "Thyrotropin receptor (Homo sapiens) (UniProt P16473)", "assay": "Secondary Concentration-Response Assay for Agonists of the Thyroid Stimulating Hormone Receptor: HTRF Activity Detection", "conditions": "HEK293-TSHR cells, cAMP HTRF ratio, 30 min; series mostly up to 91.7 µM", "procedure,_shortened": "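cAMP accumulation was detected by antibody-based HTRF, excitation 330 nm, emissions 615 and 660 nm. Compounds acted for 30 min at room temperature on stably TSHR-transfected HEK 293 cells, with phosphodiesterase inhibitor RO 20-1724 (100 uM) in the medium.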"}
{"smiles": "Cc1ccc(C)c(N(C(=O)Cn2nnc(-c3cccs3)n2)C(C(=O)NC2CC2)c2ccc(C)o2)c1", "note": "(stereo not given)", "Potency": "inconclusive: 44.7 µM [activator, partial curve]"}
{"smiles": "COc1ccc(-c2nc3ccccc3c(=O)n2Cc2ccccc2)cc1COc1ccc(NC(C)=O)cc1", "Potency": "active: 8.91 µM"}
{"smiles": "COc1ccc(C(=O)N(Cc2ccccc2)Cc2cccs2)c(O)c1", "Potency": "active: 28.2 µM"}
{"smiles": "Cc1nn(-c2ccccc2)c(N2CCCC2)c1/C=N/n1cnc2scc(-c3ccccc3)c2c1=O", "Potency": "inconclusive: 7.94 µM [activator, partial curve] and inconclusive: 4.47 µM [activator, full curve]"}
{"smiles": "Cc1onc(-c2ccccc2)c1C(=O)N1CCCSC1=Nc1ccccc1", "Potency": "inconclusive: 50.1 µM [activator, partial curve]"}
